Laboratory results: article PMC12582121
For at least one entry, the source does not settle the construct or the ends of the probe. For some assays here: Weaker means in comparison with the reference protein, sequence or condition of that experiment.

Chains of the proteins cited; added tags and fusions are not shown. Lines headed by an entry give the natural chain unless they say otherwise; changes in a name come on top.
UniProt P04406: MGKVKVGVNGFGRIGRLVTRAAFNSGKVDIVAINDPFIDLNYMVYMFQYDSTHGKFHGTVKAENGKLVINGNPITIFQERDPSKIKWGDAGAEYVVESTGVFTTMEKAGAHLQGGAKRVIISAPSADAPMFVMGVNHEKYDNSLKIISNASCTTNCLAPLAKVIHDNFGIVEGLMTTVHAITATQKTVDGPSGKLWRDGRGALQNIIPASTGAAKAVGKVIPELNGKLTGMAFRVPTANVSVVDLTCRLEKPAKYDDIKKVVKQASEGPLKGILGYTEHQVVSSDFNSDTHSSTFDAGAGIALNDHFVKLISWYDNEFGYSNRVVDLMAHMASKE

Key:
GAPDH (Homo sapiens) [1] = biological target: GAPDH (Homo sapiens) (UniProt P04406); experiment: fluorescence polarization, competition; settings: 300 µM heptelidic acid; 10 mM Tris-HCl pH 8.0, 50 mM KCl, 2 mM DTT, 0.5 mM EDTA, 0.1 mg/ml BSA, 0.1 mg/ml heparin, room temperature; FP 30 min with 2 nM RNA; recombinant protein; protein details: N-terminal His
GAPDH (Homo sapiens) [2] = biological target: GAPDH (Homo sapiens) (UniProt P04406); experiment: mass photometry; settings: minor mass shift, no heparin or BSA in buffer; 10 mM Tris-HCl pH 8.0, 50 mM KCl, 2 mM DTT, 0.5 mM EDTA, 0.1 mg/ml BSA, 0.1 mg/ml heparin, room temperature; recombinant protein; protein details: N-terminal His

| Sequence | binding signal (% maximum reduction of binding) (GAPDH (Homo sapiens) [1]) | binding result (GAPDH (Homo sapiens) [2]) |
| --- | --- | --- |
| GUGAUUAUUUAUUAUUUAUUUAUUAUUUAUUUAUUUAG [TNFα-ARE38] | 30 | – |
| UGGCCAAUGCCCUGGCUCACAAAUACCACUG [Rβ31] | – | binds more weakly |
